Experimental findings from article doi:10.1101/2022.11.16.516846 are described below.

Sequences of proteins named here, by UniProt entry; tags and fusion partners are left off.
UniProt Q7JW27: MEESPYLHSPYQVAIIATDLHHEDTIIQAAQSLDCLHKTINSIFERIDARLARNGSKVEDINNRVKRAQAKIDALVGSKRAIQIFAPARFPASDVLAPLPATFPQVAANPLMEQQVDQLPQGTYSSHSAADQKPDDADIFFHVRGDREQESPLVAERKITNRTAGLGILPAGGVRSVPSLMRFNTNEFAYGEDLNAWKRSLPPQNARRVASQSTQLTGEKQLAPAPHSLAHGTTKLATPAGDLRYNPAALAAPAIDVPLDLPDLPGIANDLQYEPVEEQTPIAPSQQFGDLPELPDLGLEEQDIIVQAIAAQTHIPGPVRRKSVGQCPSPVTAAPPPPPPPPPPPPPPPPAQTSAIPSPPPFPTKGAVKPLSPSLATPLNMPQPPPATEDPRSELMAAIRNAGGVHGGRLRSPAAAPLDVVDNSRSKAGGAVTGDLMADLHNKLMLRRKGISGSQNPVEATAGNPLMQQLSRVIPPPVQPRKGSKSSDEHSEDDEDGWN

This assay concerns the target GST-Wash full length (Drosophila) (UniProt Q7JW27). Put plainly: pull-down.

No constants are given. Whether binding was seen depends on the method and setting. In cells and extracts the contact can be indirect. Some binding calls cover weakened binding; strength is not graded here. Tags and fused reporters may be left off the sequences shown.

B1: CCDC53 (GST pulldown with Wash) (protein, UniProt Q9VLT8 1-176)
chain: MDATAAITGNVDKTQIPPLNQKRILAFVNHFLVSTCTFLNEFALGCETKFVEMERQLQKTEAALIILEAKLASIPTEHHVATEATEAPAISNQQRNEEASMVDTTEPPTTENPTEPELPPESVGVRACEDQRYRKFFKMVQVGVPAPAVKQKMQSEGLEPRILDTPDLILADGQRE
With B1, the binding result was “binds”.
